According to patent US10591445B2, “Methods for analysis and resolution of preparations of dianhydrogalactitol and derivatives or analogs thereof” (Del Mar Pharmaceuticals (BC) Ltd., priority 2015, dated 2020):
The name of at least one read-out is uncertain.

Assay: Solution stability of dulcitol standard solution (HPLC-ELSD)
Assay type: physicochemical
Protocol: The standard solutions can be stored up to 48 hrs at 2-8° C. and can be stored up to 52 hrs at ambient laboratory condition. The standard solutions can be used to generate a standard curve as described further below.
With respect to solution stability, the recovery of the aged solutions should be within 85%-115% of the initial assay. The absolute difference should be no more than 0.2% for an impurity at ≤1.0%. For an impurity >1.0%, the result of the aged solution should be within 80%-120% of the original. No new impurities at ≥1.0% should be observed.
The experimental approach for determining solution stability was as follows: For a standard solution, a dulcitol standard solution was prepared at 1.0% of DAG nominal conc. in one replicate and placed the solution under ambient laboratory conditions and refrigerated conditions (2-8° C.), respectively, using 1% Linearity standard solutions). The solution was reanalyzed at different time intervals, such as 2 hours, 4 hours, 8 hours, 24 hours and 48 hours. For time points of less than 24 hours, solution stability is evaluated against fresh standards. The recovery of the aged solutions is evaluated. For sample solutions, a sample solution at a specified DAG nominal concentration was prepared in one replicate and placed under laboratory conditions at ambient temperature or under refrigerated conditions (2-8° C.). The solution was reanalyzed at different time intervals, such as 2 hours, 4 hours, 8 hours, 24 hours and 48 hours. For time points of less than 24 hours, solution stability is evaluated against fresh standards.

Measured: Recovery (v.s. Initial)

OC[C@@H](O)[C@H](O)[C@H](O)[C@@H](O)CO [Dulcitol, dulcitol]
99%: 2-8° C., 8 h | ambient laboratory conditions, 4 h | ambient laboratory conditions, 8 h | ambient laboratory conditions, 48 h | ambient laboratory conditions, 52 hrs
101%: ambient laboratory conditions, 25 h | ambient laboratory conditions, 27 hrs
100%: 2-8° C., 2 h | 2-8° C., 4 h | 2-8° C., 25 h | 2-8° C., 48 h | ambient laboratory conditions, 2 h
